The target in the test is Non-muscle myosin heavy chain IIA (MYH9) (human (endogenous in HCCLM3 and Huh7)) (UniProt P35579). Nature of the test: co-IP; MYH9-associated co-IP complex from HCCLM3 cells, endogenous proteins; Pierce Co-IP kit, 10 μg antibody or IgG to 5 mg protein overnight; western blotting.

By UniProt entry, the sequences of proteins in these tests, tags left out.
UniProt P35579: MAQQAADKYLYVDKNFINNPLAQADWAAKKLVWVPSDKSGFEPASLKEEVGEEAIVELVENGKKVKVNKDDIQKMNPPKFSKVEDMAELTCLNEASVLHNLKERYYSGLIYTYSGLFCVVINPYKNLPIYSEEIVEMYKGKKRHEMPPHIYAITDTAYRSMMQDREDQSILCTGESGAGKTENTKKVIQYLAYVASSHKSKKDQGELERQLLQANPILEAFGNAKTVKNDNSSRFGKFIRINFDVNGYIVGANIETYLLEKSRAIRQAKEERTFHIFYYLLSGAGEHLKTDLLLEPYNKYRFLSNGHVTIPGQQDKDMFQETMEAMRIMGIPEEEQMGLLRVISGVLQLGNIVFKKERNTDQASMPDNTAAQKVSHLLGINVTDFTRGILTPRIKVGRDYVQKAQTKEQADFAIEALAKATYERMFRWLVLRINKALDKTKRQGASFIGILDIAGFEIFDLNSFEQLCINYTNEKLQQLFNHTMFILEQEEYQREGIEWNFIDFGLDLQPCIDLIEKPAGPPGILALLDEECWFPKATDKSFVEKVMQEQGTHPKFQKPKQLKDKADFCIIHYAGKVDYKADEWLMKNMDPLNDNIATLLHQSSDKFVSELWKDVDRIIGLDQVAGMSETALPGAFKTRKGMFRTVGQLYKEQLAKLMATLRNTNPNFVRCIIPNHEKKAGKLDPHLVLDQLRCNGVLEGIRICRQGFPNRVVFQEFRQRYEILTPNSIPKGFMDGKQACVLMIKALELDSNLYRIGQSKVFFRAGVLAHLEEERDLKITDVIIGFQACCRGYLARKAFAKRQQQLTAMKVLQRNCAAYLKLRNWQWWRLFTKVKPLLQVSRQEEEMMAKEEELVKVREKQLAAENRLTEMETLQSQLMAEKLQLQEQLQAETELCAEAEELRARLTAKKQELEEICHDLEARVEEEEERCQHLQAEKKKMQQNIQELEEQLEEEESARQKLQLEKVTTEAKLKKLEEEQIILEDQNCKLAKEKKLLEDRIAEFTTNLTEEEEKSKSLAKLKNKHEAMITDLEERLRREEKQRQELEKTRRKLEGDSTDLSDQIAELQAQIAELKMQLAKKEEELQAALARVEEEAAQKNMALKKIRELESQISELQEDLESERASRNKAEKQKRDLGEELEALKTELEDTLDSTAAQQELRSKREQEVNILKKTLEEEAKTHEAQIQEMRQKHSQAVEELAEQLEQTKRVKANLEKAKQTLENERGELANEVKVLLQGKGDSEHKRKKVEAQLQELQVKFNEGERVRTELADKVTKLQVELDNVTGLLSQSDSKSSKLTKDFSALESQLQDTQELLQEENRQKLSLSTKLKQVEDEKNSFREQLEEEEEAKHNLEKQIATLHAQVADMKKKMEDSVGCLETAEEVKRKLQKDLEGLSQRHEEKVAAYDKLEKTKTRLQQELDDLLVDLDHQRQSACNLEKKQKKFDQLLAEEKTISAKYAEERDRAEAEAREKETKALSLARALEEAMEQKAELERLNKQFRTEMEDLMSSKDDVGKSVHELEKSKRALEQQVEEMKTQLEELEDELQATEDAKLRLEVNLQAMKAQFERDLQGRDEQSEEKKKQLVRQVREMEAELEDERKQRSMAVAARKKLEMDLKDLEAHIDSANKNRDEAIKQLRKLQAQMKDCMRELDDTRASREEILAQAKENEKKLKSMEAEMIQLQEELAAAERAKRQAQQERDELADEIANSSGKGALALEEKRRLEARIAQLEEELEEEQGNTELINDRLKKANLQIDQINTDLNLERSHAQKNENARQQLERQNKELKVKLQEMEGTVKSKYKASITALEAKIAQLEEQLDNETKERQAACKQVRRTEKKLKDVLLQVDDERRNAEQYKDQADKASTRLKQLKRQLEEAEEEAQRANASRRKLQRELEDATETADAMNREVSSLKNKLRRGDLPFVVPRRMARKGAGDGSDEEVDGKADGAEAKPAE
UniProt O15169: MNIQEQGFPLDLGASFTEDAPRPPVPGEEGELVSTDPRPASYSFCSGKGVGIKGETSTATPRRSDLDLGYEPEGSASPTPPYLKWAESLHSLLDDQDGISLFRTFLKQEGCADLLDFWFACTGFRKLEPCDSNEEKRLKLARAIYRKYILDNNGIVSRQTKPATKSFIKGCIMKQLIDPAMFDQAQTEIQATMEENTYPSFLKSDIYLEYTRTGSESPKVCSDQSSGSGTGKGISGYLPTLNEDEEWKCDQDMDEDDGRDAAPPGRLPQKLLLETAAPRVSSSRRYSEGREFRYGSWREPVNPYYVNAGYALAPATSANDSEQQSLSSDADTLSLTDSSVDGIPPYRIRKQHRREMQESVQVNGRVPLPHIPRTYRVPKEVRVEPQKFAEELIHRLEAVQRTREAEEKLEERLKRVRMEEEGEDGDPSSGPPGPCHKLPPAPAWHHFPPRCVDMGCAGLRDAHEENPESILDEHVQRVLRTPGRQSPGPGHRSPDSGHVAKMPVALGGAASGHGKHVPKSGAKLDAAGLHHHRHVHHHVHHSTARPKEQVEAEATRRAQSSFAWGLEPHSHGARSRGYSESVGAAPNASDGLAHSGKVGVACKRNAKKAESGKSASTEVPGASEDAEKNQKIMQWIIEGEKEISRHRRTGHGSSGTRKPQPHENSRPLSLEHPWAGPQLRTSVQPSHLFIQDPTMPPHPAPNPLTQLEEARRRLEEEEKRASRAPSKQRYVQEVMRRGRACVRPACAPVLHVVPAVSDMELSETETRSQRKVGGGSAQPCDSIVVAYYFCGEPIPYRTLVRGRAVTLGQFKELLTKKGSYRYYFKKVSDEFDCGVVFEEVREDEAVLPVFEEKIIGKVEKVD
UniProt P49841: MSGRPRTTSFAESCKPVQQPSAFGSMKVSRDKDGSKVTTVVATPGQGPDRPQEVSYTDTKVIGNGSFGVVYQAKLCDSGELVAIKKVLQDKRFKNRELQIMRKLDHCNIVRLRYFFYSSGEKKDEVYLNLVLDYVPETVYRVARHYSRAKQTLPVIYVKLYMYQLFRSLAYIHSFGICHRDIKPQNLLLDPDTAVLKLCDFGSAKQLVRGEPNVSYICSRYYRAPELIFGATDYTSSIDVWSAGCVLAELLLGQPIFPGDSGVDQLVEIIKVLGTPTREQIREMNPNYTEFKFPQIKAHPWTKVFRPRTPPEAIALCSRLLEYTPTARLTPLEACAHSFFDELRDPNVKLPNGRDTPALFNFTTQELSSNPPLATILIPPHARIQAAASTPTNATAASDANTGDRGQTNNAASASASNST
UniProt P35222: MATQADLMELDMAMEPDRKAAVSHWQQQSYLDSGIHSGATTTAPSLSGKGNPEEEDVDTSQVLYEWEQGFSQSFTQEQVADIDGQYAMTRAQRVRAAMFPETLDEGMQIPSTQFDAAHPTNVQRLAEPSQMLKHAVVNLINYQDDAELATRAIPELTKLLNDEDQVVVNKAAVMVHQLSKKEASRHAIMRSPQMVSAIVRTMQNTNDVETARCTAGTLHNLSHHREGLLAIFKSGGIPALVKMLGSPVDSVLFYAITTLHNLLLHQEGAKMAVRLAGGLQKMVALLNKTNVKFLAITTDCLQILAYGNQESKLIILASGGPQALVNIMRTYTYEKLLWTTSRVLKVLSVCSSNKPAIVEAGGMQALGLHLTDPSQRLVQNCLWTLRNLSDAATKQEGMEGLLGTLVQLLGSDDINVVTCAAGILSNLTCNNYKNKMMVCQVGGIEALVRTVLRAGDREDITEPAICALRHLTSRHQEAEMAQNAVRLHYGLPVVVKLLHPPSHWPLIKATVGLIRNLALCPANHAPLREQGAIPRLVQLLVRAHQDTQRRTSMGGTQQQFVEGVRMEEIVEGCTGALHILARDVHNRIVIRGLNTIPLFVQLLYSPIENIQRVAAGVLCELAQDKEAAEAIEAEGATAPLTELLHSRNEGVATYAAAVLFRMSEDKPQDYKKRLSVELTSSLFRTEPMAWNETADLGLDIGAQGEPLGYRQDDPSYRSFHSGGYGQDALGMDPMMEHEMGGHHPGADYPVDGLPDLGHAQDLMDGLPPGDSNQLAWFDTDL

No constants are given. Whether binding was seen depends on the method and setting. In cells and extracts the contact can be indirect. Some binding calls cover weakened binding; strength is not graded here.

In the case of AXIN1 (from UniProt O15169 1-862), the binding result was “binds”.

GSK3β (from UniProt P49841 1-420): the binding result is “binds”.

Turning to β-catenin (from UniProt P35222 1-781), the binding entry was “binds”.

The values are drawn from PMC7018736.
